Data taken from ChEMBL document CHEMBL3988442, “University of Dundee, Small-Polar-MMV Screening Library” (2021).

By UniProt entry, the sequences of proteins in these tests, tags left out. Residues count along the entry.
UniProt Q8IDJ8, 1-583: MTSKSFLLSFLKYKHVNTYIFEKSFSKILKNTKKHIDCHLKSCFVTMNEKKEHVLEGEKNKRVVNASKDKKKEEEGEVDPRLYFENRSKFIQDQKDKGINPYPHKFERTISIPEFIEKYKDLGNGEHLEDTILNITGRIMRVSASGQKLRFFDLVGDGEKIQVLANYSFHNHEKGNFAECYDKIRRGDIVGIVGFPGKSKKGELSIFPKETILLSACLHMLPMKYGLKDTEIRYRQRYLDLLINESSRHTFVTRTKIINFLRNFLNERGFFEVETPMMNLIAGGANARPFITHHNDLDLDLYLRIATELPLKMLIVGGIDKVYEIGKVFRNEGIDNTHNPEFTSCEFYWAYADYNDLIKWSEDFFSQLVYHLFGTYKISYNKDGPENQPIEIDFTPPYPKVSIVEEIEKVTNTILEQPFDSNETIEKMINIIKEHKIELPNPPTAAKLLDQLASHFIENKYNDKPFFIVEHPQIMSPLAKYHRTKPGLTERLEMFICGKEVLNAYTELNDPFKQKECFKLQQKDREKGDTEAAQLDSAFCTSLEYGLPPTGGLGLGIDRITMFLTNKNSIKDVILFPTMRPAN
UniProt P9WFT3, whole entry: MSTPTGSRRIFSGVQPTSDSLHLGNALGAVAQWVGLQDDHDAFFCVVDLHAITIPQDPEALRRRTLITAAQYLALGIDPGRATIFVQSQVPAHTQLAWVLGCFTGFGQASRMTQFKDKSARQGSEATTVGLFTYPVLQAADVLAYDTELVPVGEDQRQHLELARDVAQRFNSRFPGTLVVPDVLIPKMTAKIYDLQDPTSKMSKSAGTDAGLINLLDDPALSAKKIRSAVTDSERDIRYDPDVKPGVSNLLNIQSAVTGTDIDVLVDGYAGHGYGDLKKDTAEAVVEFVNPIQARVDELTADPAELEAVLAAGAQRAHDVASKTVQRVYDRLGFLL
UniProt P9WPC5, whole entry: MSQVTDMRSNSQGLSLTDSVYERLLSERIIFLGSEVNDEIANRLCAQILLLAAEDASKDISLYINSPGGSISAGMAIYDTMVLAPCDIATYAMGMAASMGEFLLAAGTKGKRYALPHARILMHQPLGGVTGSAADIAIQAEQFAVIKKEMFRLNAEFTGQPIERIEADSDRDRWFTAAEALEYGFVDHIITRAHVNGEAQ
UniProt P9WPC3, whole entry partner: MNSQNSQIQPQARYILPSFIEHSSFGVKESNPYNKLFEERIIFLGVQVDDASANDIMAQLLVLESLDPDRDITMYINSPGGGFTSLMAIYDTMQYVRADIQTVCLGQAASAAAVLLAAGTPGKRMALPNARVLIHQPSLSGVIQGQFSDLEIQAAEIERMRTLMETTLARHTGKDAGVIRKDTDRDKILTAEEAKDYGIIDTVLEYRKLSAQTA
UniProt Q4DA54, 1-478: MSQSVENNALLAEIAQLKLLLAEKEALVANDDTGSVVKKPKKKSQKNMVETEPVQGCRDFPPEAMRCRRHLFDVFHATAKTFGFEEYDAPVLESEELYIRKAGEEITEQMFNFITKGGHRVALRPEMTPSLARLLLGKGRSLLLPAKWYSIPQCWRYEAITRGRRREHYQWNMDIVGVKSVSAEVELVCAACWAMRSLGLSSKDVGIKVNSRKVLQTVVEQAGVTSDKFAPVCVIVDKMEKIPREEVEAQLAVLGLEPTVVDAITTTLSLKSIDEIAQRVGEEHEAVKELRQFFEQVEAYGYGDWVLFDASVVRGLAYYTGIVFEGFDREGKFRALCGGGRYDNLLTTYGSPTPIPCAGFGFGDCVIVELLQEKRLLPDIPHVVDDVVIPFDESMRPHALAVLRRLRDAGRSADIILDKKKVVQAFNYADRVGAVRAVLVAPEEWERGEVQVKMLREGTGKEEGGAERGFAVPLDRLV

A: 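Enzyme assay of the cytosolic lysyl-tRNA synthetase in 384-well plates, read by luminescence. Target: Lysine-tRNA ligase, Plasmodium falciparum 3D7 (UniProt Q8IDJ8). Concentration: 30 µM. Higher reads as stronger inhibition, judged from the few compounds that gave an IC50. Of about 69,000 compounds tested this way, about 49 (0.071%) reached 50% or more in at least one test.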
B: 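Enzyme assay of tryptophanyl-tRNA synthetase; the read-out is not stated. Target: Tryptophan-tRNA ligase, Mycobacterium tuberculosis (UniProt P9WFT3). Compounds at 10 µM. Direction is not recorded; retested compounds ran higher, which suggests that high means inhibition. Of about 65,000 compounds tested this way, about 64 (0.098%) reached 50% or more in at least one test.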
C: 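ClpP1P2, Mycobacterium tuberculosis (UniProt P9WPC5 and UniProt P9WPC3). Protease assay of ClpP1P2, read by the AMC dye that it sets free. Tested at 50 µM. Higher reads as stronger inhibition, judged from the few compounds that gave an IC50. Most other retested compounds had strongly negative values. Of about 69,000 compounds tested this way, about 10 (0.015%) reached 50% or more in at least one test.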
D: 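Enzyme assay of histidyl-tRNA synthetase; the read-out is not stated. Target: Histidine-tRNA ligase, Trypanosoma cruzi CL Brener (UniProt Q4DA54). Concentration: 30 µM. The record gives no direction; compounds that gave an IC50 in retests scored well above the rest, so higher reads as stronger inhibition. Size under these conditions: about 69,000 compounds, about 31 of them at 50% or above in at least one test.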

The filed quantity is “Percent Effect” (%).
The controls that fix the scale are not given in the record; negative values are as filed.
The compounds are a random part of those screened.
A dash means the value is not listed here; it may have been measured.

| structure | A | B | C | D |
|---|---|---|---|---|
| `Cc1nc(-c2ccccc2)sc1CSCCS(C)(=O)=O` | 3.829 | -6.757 | 0.6479 | 7.263 |
| `NC(=O)C1CCCN1C(=O)c1cccc2c1OCO2` (centres unmarked) | 4.804 | -0.5913 | -8.698 | -0.4425 |
| `Cc1nnc(CN2CCC3(CCC(=O)N(C4CC4)C3)CC2)o1` | 2.834 | -0.1325 | 1.789 | 4.217 |
| `COC(=O)c1cccn1C1CCN(S(=O)(=O)c2ccccc2)CC1` | 0.2144 | 5.849 | -24.24 | -1.994 |
| `CN(C)CC(=O)N1Cc2ncn(C)c2C(COCC2CCOCC2)C1` (centres unmarked) | 2.043 | -4.856 | -6.955 | 4.926 |
| `Cc1ccc(CCNC(=O)NCc2cccc(OC(F)F)c2)cn1` | 3.387 | 0.5093 | 1.279 | 7.792 |
| `CC(C)CN1CC2(CCN(C(=O)C(O)c3cccc(Cl)c3)CC2)CC1=O` (centres unmarked) | 1.473 | -0.6849 | 3.917 | 18.99 |
| `CCc1nnc(Nc2cccc(C3CCN(C(=O)CNC)CC3)n2)s1` | -2.229 | - | 14.27 | 0 |
| `Cc1nc(CSc2ccc(C(F)(F)F)cn2)no1` | 7.173 | -0.07788 | -5.529 | 5.419 |
| `Fc1cccc(N2C[C@H]3CCN(c4cccnc4)C[C@H]3C2)c1` | 12.7 | -4.128 | 8.363 | 26.2 |
| `O=C(Cn1ccc(-c2ccccc2)n1)N1CCN(C(=O)C2CC2)CC1` | 4.339 | 0.983 | 1.139 | 4.762 |
| `O=C(NCCNC1CCN(c2nccs2)CC1)c1cccs1` | 4.631 | -1.324 | -11.21 | -2.463 |
| `O=C(NCc1noc(C2CCCO2)n1)c1cn2ccsc2n1` (centres unmarked) | 0.6148 | 0 | 2.312 | 4 |
| `CCCC1CCCN(C(=O)Nc2ccnc(C(=O)N(C)C)c2)CC1` (centres unmarked) | 5.387 | -3.343 | -6.042 | 3.158 |
| `COCCOc1ccc(NC(=O)C2CC(=O)N(C(C)C)C2)cn1` (centres unmarked) | -1.464 | -7.592 | -1.513 | 7.558 |
| `Cn1nc(CN2CCCCC2)c2c1CN(Cc1ccoc1)C2` | 4.219 | 1.066 | -5.89 | 6.135 |
| `Cc1cc(C[C@@H]2COC[C@H]2NCc2ccc(Br)s2)on1` | -5.098 | -1.254 | -10.32 | 4.865 |
| `CN(CCc1ccccn1)Cc1nccn1Cc1ccccc1` | -6.18 | 12.93 | -10.71 | -1.064 |
| `CC(C)NC(=O)c1ccc2c(c1)nc1n2CCN(Cc2ccccc2)C1` | 5.182 | -2.506 | -0.5611 | 6.509 |
| `O=C(NC1CC1)c1cc2c(s1)CCN2C(=O)C1CC1` | 2.606 | - | 1.99 | 10 |
| `Fc1ccc(-c2nc(CNC3CCc4ncnn4C3)cs2)cc1` (centres unmarked) | -1.171 | 1.203 | -13.52 | 7.918 |
| `Cc1ncc(CN2CCc3c(nc(-c4ccccn4)[nH]c3=O)C2)n1C` | -0.7601 | - | -5.597 | 5.319 |
| `CCn1nc(C)c2nc(C)nc(NCCCn3cccn3)c21` | 0.6031 | 1.166 | -1.125 | 4.348 |
| `c1ccc(-c2cc(CNCCN3CCOCC3)c3nnnn3c2)cc1` | 3.571 | 1.333 | 9.835 | 8.955 |
| `CCc1nc(CN2CCN(C(C)c3nc(C4CC4)no3)CC2)no1` (centres unmarked) | -0.1206 | -1.647 | -17.98 | 2.564 |
| `CCn1nc(C)c2ccn(CC(=O)NCCN3CCCCC3)c(=O)c21` | 6.361 | 0.8804 | -3.304 | 0.5025 |
| `CCc1ccc(OCC(O)CN2CCN(S(C)(=O)=O)CC2)cc1` (centres unmarked) | -1.773 | -3.206 | 9.191 | -1.132 |
| `c1ccc(CCNC2CCc3ncnn3C2)nc1` (centres unmarked) | -6.595 | -0.6603 | 13.56 | 1.901 |
| `CCc1cc(O)nc(C2CCCN(Cc3ccncc3)C2)n1` (centres unmarked) | 4.207 | - | 5.457 | 8.791 |
| `Cc1cccc(CN2CCC(c3nccn3CC(N)=O)CC2)n1` | -0.7666 | 2.781 | 2.092 | 9.036 |
| `Cc1ccc2nc(CN3CCC(O)(Cn4ccnc4)CC3)cc(O)c2c1` | 5.596 | -3.638 | 0.3569 | 8.38 |
| `COc1ccc(CNC(=O)NC2CCN(CC3CCCC3)CC2)cn1` | 4.606 | 2.312 | 0.6871 | 7.692 |
| `CCOCCN1CCN(c2ncccc2C#N)CC1CC` (centres unmarked) | 1.997 | -3.634 | -7.726 | -97.49 |
| `Cc1noc(C)c1-c1cccc(CC2CCN(C(=O)c3cscn3)C2)n1` (centres unmarked) | 4.217 | - | 3.382 | 5.556 |
| `CCCOC(=O)N1CCCC(c2nnc(CN3CCOCC3)n2C)C1` (centres unmarked) | 6.611 | 0.243 | 4.535 | 7.143 |
| `c1ccc(OCC2C[C@@H]3[C@@H](C2)OCCN3CC2CCOCC2)nc1` (some centres unmarked) | 3.219 | - | -3.423 | 5.556 |
| `Fc1cnc(N2CCC3(CCCN(c4nncs4)C3)C2)nc1` (centres unmarked) | 2.041 | -0.6975 | -1.78 | 4.132 |
| `CN1CCOC(C)(C(=O)N2CCSCC2)C1` (centres unmarked) | -0.547 | -4.706 | -10.41 | 8.365 |
| `Cc1ccc2cc(CN(C)Cc3ccncn3)c(=O)[nH]c2c1` | 0.5196 | 4.776 | -81.57 | 0.9662 |
| `COc1ccc(-n2nc(C(C)C)nc2COC(C)C)cc1` | 1.035 | -3.937 | -1.088 | 9.091 |
| `COc1ccccc1C(C)NC(=O)N1CCC(n2cncn2)CC1` (centres unmarked) | -0.06591 | -9.504 | -12.69 | 0 |
| `N[C@@H]1c2ccccc2C2(CCN(C(=O)c3ccc(Cl)cn3)CC2)[C@H]1O` | 0.393 | 1.319 | -14.78 | 2.5 |

Some entries from above, unchanged:

| structure | A | B | C | D |
|---|---|---|---|---|
| `Cc1ccc(CCNC(=O)NCc2cccc(OC(F)F)c2)cn1` | 3.387 | 0.5093 | 1.279 | 7.792 |
| `O=C(NC1CC1)c1cc2c(s1)CCN2C(=O)C1CC1` | 2.606 | - | 1.99 | 10 |
| `c1ccc(-c2cc(CNCCN3CCOCC3)c3nnnn3c2)cc1` | 3.571 | 1.333 | 9.835 | 8.955 |